Laboratory results: paper PMC9290910, “Neuropilin‐1 is required for endothelial cell adhesion to soluble vascular endothelial growth factor receptor 1” (The Febs Journal, 2021)
These are yes or no findings as the source states them, for the method shown. Some results given as binding are weak or reduced against the parent protein; the word gives no strength. For some of these results: Where a sequence is shown, tags or fusion partners need not be part of it.

T1: Recombinant human NRP‐1 (human, UniProt O14786 22-856)
T1 construct: Neuropilin-1, human, recombinant soluble protein; see the vendor's datasheet (as far as I recall an extracellular fragment with a C-terminal His tag); also called Neuropilin‐1; soluble NRP‐1; source: bought: R&D Systems (3870‐N1)
T1 sequence (looked up): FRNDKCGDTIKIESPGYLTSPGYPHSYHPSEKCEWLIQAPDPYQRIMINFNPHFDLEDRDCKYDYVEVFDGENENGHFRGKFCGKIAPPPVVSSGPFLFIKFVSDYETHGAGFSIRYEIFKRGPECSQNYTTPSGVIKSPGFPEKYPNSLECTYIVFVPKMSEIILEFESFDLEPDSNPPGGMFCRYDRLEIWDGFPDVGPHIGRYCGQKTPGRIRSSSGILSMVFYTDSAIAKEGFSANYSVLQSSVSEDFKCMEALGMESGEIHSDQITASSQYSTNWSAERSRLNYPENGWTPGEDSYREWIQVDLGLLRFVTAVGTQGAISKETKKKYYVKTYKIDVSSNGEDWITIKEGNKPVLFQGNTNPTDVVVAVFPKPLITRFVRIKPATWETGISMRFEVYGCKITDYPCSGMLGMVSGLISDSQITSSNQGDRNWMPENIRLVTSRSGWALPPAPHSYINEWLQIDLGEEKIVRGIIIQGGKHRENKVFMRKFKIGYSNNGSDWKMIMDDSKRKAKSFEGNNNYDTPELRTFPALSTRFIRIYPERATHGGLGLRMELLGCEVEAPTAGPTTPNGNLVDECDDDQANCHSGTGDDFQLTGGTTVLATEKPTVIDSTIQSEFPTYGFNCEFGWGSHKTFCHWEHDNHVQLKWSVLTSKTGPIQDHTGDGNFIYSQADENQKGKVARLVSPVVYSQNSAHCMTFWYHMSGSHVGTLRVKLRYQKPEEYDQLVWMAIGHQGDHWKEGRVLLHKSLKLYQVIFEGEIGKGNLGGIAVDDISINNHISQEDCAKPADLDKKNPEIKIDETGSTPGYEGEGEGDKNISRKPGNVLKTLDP

T2: Recombinant human NRP‐2/Fc (human) (UniProt O60462)
T2 sequence: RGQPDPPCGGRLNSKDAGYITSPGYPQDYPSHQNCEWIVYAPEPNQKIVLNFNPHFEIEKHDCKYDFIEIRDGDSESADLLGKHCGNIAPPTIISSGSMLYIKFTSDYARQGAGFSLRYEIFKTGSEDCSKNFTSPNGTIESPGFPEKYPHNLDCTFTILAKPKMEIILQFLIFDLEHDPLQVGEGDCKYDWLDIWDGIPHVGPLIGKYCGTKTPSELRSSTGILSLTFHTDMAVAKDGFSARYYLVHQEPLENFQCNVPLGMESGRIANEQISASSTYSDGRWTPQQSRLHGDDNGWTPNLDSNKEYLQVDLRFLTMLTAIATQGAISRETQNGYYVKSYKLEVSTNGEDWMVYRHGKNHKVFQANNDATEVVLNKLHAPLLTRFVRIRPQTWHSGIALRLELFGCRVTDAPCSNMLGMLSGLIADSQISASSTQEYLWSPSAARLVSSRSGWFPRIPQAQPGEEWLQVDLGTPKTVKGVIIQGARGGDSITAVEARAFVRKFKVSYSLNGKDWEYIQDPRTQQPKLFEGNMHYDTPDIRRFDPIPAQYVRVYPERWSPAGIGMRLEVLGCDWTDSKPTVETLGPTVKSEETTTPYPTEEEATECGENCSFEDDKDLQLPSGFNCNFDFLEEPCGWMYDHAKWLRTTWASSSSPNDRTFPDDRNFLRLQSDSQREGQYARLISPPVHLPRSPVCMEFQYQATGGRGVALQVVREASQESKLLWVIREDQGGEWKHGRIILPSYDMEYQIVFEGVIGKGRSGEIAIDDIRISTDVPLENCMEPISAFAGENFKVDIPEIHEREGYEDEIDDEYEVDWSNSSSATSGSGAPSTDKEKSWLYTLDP


How the values were obtained:
[1] = target: Recombinant human VEGFR‐1/Fc (human) (UniProt P17948); test: solid-phase binding assay; plates coated overnight at 4 °C with 2 µg/mL protein in 25 mM Tris/HCl, 150 mM NaCl, 1 mM MgCl2; blocked with 1% BSA/PBS; biotinylated peptide 500 µg/mL, 1 h, room temperature; detected with streptavidin-alkaline phosphatase, A405; both purified
Recombinant human NRP‐1 [2] = target: T1, Recombinant human NRP‐1; test: as above
[3] = target: T2, Recombinant human NRP‐2/Fc (human); test: as above
Recombinant human NRP‐1 [4] = target: T1, Recombinant human NRP‐1; test: SPR; competition: NRP-1 immobilised by amine coupling; protein analyte at a fixed concentration (VEGFR-1/Fc 5 nM; α5β1 integrin 200 nM; semaphorin 3A 200 nM) injected together with peptide at different concentrations; HEPES-buffered saline; both purified

binding [1] | binding (Recombinant human NRP‐1 [2]) | binding [3] | binding (Recombinant human NRP‐1 [4]) | Binder
no binding (tested: 500 µg·mL^−1) | binds | binds | – | NITVTLKKFPL (biotin) [biotinylated Flt_(2‐11) peptide]
– | – | – | binds | Recombinant human VEGFR‐1/Fc (Fc fusion, UniProt P17948 27-758, looked up, VEGFR-1 (Flt-1), human, recombinant Fc chimera; also called sVEGFR‐1; sVEGFR‐1/Fc; source: bought: R&D Systems (321‐FL‐050)) SKLKDPELSLKGTQHIMQAGQTLHLQCRGEAAHKWSLPEMVSKESERLSITKSACGRNGKQFCSTLTLNTAQANHTGFYSCKYLAVPTSKKKETESAIYIFISDTGRPFVEMYSEIPEIIHMTEGRELVIPCRVTSPNITVTLKKFPLDTLIPDGKRIIWDSRKGFIISNATYKEIGLLTCEATVNGHLYKTNYLTHRQTNTIIDVQISTPRPVKLLRGHTLVLNCTATTPLNTRVQMTWSYPDEKNKRASVRRRIDQSNSHANIFYSVLTIDKMQNKDKGLYTCRVRSGPSFKSVNTSVHIYDKAFITVKHRKQQVLETVAGKRSYRLSMKVKAFPSPEVVWLKDGLPATEKSARYLTRGYSLIIKDVTEEDAGNYTILLSIKQSNVFKNLTATLIVNVKPQIYEKAVSSFPDPALYPLGSRQILTCTAYGIPQPTIKWFWHPCNHNHSEARCDFCSNNEESFILDADSNMGNRIESITQRMAIIEGKNKMASTLVVADSRISGIYICIASNKVGTVGRNISFYITDVPNGFHVNLEKMPTEGEDLKLSCTVNKFLYRDVTWILLRTVNNRTMHYSISKQKMAITKEHSITLNLTIMNVSLQDSGTYACRARNVYTGEEILQKKEITIRDQEAPYLLRNLSDHTVAISSSTTLDCHANGVPEPQITWFKNNHKIQQEPGIILGPGSSTLFIERVTEEDEGVYHCKATNQKGSVESSAYLTVQGTSDKSNLE
